# Source: the supplement of paper PMC8728848
# The list shows a part of the results.
# Columns and labels:
# Test in all cases: glycan array binding signal (z-score within array); higher = stronger binding
# Conditions in all cases: glycan notation: IUPAC condensed, linker removed
# [1] = target: Gal(a1-3)Gal(b1-4)GlcNAc
# Method in brief: (§1)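 The Consortium for Functional Glycomics database supplied 3228 glycan arrays, of which those lacking an available protein sequence were dropped. The binding signal, a within-array Z-score, was averaged across arrays of the same protein sequence and across linkers. Negative scores can be read as non-binding.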
# [2] = target: Gal(a1-3)Gal(b1-4)GlcNAc(b1-2)Man
# Method in brief: as §1
# [3] = target: Gal(a1-3)Gal(b1-4)GlcNAc(b1-2)Man(a1-3)[Gal(a1-3)Gal(b1-4)GlcNAc(b1-2)Man(a1-6)]Man(b1-4)GlcNAc(b1-4)GlcNAc
# Method in brief: as §1
# [4] = target: Gal(a1-3)Gal(b1-4)GlcNAc(b1-3)GalNAc
# Method in brief: as §1
# [5] = target: Gal(a1-3)Gal(b1-4)GlcNAc(b1-6)GalNAc
# Method in brief: as §1
# [6] = target: Gal(a1-3)Gal(b1-4)[Fuc(a1-3)]GlcNAc
# Method in brief: as §1
# [7] = target: Gal(a1-3)Gal(b1-4)[Fuc(a1-3)]GlcNAc(b1-2)Man(a1-3)[Gal(a1-3)Gal(b1-4)[Fuc(a1-3)]GlcNAc(b1-2)Man(a1-6)]Man(b1-4)GlcNAc(b1-4)GlcNAc
# Method in brief: as §1
# [8] = target: Gal(a1-3)GalNAc
# Method in brief: as §1
# [9] = target: Gal(a1-3)[Gal(a1-4)]Gal(b1-4)GlcNAc
# Method in brief: as §1
# [10] = target: Gal(a1-4)Gal(b1-3)GlcNAc(b1-2)Man(a1-3)[Gal(a1-4)Gal(b1-3)GlcNAc(b1-2)Man(a1-6)]Man(b1-4)GlcNAc(b1-4)GlcNAc
# Method in brief: as §1
# [11] = target: Gal(a1-4)Gal(b1-4)Glc
# Method in brief: as §1
# [12] = target: Gal(a1-4)Gal(b1-4)GlcNAc
# Method in brief: as §1
# [13] = target: Gal(a1-4)Gal(b1-4)GlcNAc(b1-2)Man(a1-3)[Gal(a1-4)Gal(b1-4)GlcNAc(b1-2)Man(a1-6)]Man(b1-4)GlcNAc(b1-4)GlcNAc
# Method in brief: as §1
# [14] = target: Gal(a1-4)Gal(b1-4)GlcNAc(b1-3)Gal(b1-4)Glc
# Method in brief: as §1
# [15] = target: Gal(a1-4)GlcNAc
# Method in brief: as §1
# [16] = target: Gal(a1-6)Glc
# Method in brief: as §1
# [17] = target: Gal(b1-2)Gal
# Method in brief: as §1
# [18] = target: Gal(b1-3)Gal
# Method in brief: as §1
# [19] = target: Gal(b1-3)Gal(b1-4)GlcNAc
# Method in brief: as §1
# [20] = target: Gal(b1-3)GalNAc
# Method in brief: as §1
# [21] = target: Gal(b1-3)GalNAc(a1-3)[Fuc(a1-2)]Gal(b1-4)Glc
# Method in brief: as §1
# [22] = target: Gal(b1-3)GalNAc(a1-3)[Fuc(a1-2)]Gal(b1-4)GlcNAc
# Method in brief: as §1
# [23] = target: Gal(b1-3)GalNAc(b1-3)Gal
# Method in brief: as §1
# [24] = target: Gal(b1-3)GalNAc(b1-3)Gal(a1-4)Gal(b1-4)Glc
# Method in brief: as §1
# [25] = target: Gal(b1-3)GalNAc(b1-4)Gal(b1-4)Glc
# Method in brief: as §1
# [26] = target: Gal(b1-3)GalNAc(b1-4)[Neu5Ac(a2-3)]Gal(b1-4)Glc
# Method in brief: as §1
# [27] = target: Gal(b1-3)GlcNAc
# Method in brief: as §1
# [28] = target: Gal(b1-3)GlcNAc(a1-3)Gal(b1-4)GlcNAc
# Method in brief: as §1
# [29] = target: Gal(b1-3)GlcNAc(a1-6)Gal(b1-4)GlcNAc
# Method in brief: as §1
# [30] = target: Gal(b1-3)GlcNAc(b1-2)Man
# Method in brief: as §1
# [31] = target: Gal(b1-3)GlcNAc(b1-2)Man(a1-3)[Gal(b1-3)GlcNAc(b1-2)Man(a1-6)]Man(b1-4)GlcNAc(b1-4)GlcNAc
# Method in brief: as §1
# [32] = target: Gal(b1-3)GlcNAc(b1-2)Man(a1-3)[Gal(b1-3)GlcNAc(b1-2)Man(a1-6)]Man(b1-4)GlcNAc(b1-4)[Fuc(a1-6)]GlcNAc
# Method in brief: as §1
# [33] = target: Gal(b1-3)GlcNAc(b1-2)Man(a1-3)[GlcNAc(b1-4)][Gal(b1-3)GlcNAc(b1-2)Man(a1-6)]Man(b1-4)GlcNAc(b1-4)GlcNAc
# Method in brief: as §1
# [34] = target: Gal(b1-3)GlcNAc(b1-2)[Gal(b1-3)GlcNAc(b1-6)]Man(a1-6)[Gal(b1-3)GlcNAc(b1-2)Man(a1-3)]Man(b1-4)GlcNAc(b1-4)GlcNAc
# Method in brief: as §1
# [35] = target: Gal(b1-3)GlcNAc(b1-3)Gal(b1-3)GlcNAc
# Method in brief: as §1
# [36] = target: Gal(b1-3)GlcNAc(b1-3)Gal(b1-4)Glc
# Method in brief: as §1
# [37] = target: Gal(b1-3)GlcNAc(b1-3)Gal(b1-4)GlcNAc
# Method in brief: as §1
# [38] = target: Gal(b1-3)GlcNAc(b1-3)Gal(b1-4)GlcNAc(b1-2)Man(a1-3)[Gal(b1-3)GlcNAc(b1-3)Gal(b1-4)GlcNAc(b1-2)Man(a1-6)]Man(b1-4)GlcNAc(b1-4)GlcNAc
# Method in brief: as §1
# [39] = target: Gal(b1-3)GlcNAc(b1-3)Gal(b1-4)GlcNAc(b1-2)[Gal(b1-3)GlcNAc(b1-3)Gal(b1-4)GlcNAc(b1-6)]Man(a1-6)[Gal(b1-3)GlcNAc(b1-3)Gal(b1-4)GlcNAc(b1-2)Man(a1-3)]Man(b1-4)GlcNAc(b1-4)[Fuc(a1-6)]GlcNAc
# Method in brief: as §1
# [40] = target: Gal(b1-3)GlcNAc(b1-3)Gal(b1-4)GlcNAc(b1-3)Gal(b1-4)GlcNAc(b1-2)[Gal(b1-3)GlcNAc(b1-3)Gal(b1-4)GlcNAc(b1-3)Gal(b1-4)GlcNAc(b1-6)]Man(a1-6)[Gal(b1-3)GlcNAc(b1-3)Gal(b1-4)GlcNAc(b1-3)Gal(b1-4)GlcNAc(b1-2)Man(a1-3)]Man(b1-4)GlcNAc(b1-4)[Fuc(a1-6)]GlcNAc
# Method in brief: as §1
# [41] = target: Gal(b1-3)GlcNAc(b1-3)Gal(b1-4)GlcNAc(b1-6)[Gal(b1-3)GlcNAc(b1-3)]Gal(b1-4)Glc
# Method in brief: as §1
# [42] = target: Gal(b1-3)GlcNAc(b1-3)Gal(b1-4)[Fuc(a1-3)]GlcNAc
# Method in brief: as §1
# [43] = target: Gal(b1-3)GlcNAc(b1-3)Gal(b1-4)[Fuc(a1-3)]GlcNAc(b1-6)[Gal(b1-3)GlcNAc(b1-3)]Gal(b1-4)Glc
# Method in brief: as §1
# [44] = target: Gal(b1-3)GlcNAc(b1-3)GalNAc
# Method in brief: as §1
# [45] = target: Gal(b1-3)GlcNAc(b1-6)Gal(b1-4)GlcNAc
# Method in brief: as §1
binder,measurement,setting,value
BIp1-His (Cryptococcus neoformans) (protein) MFTKIFVALFAATAVLSAPVESAEKRITHTGRATFYSPSVGIGACGWQNTDEELVVALNAPQYALNADHNCGQSVRITNEQNGNQEIAKVVDLCPGCNDGDLDMSPALFGALNNNDFDQGVFPISWNFLPRDDTSSSN,glycan array binding signal (z-score),[1],0.102
same,glycan array binding signal (z-score),[2],-0.651
same,glycan array binding signal (z-score),[3],-0.192
same,glycan array binding signal (z-score),[4],0.409
same,glycan array binding signal (z-score),[5],-0.681
same,glycan array binding signal (z-score),[6],-0.303
same,glycan array binding signal (z-score),[7],-0.335
same,glycan array binding signal (z-score),[8],-0.689
same,glycan array binding signal (z-score),[9],0.032
same,glycan array binding signal (z-score),[10],1.64
same,glycan array binding signal (z-score),[11],0.094
same,glycan array binding signal (z-score),[12],0.55
same,glycan array binding signal (z-score),[13],1.68
same,glycan array binding signal (z-score),[14],-0.471
same,glycan array binding signal (z-score),[15],-1.9
same,glycan array binding signal (z-score),[16],-0.512
same,glycan array binding signal (z-score),[17],-0.692
same,glycan array binding signal (z-score),[18],0.203
same,glycan array binding signal (z-score),[19],0.294
same,glycan array binding signal (z-score),[20],-0.183
same,glycan array binding signal (z-score),[21],0.096
same,glycan array binding signal (z-score),[22],-0.522
same,glycan array binding signal (z-score),[23],-1.47
same,glycan array binding signal (z-score),[24],0.446
same,glycan array binding signal (z-score),[25],0.565
same,glycan array binding signal (z-score),[26],0.352
same,glycan array binding signal (z-score),[27],-0.406
same,glycan array binding signal (z-score),[28],-0.685
same,glycan array binding signal (z-score),[29],-0.281
same,glycan array binding signal (z-score),[30],-0.107
same,glycan array binding signal (z-score),[31],1.31
same,glycan array binding signal (z-score),[32],0.02
same,glycan array binding signal (z-score),[33],-0.351
same,glycan array binding signal (z-score),[34],1.05
same,glycan array binding signal (z-score),[35],-1.43
same,glycan array binding signal (z-score),[36],-0.538
same,glycan array binding signal (z-score),[37],-1.38
same,glycan array binding signal (z-score),[38],1.15
same,glycan array binding signal (z-score),[39],1.82
same,glycan array binding signal (z-score),[40],1.39
same,glycan array binding signal (z-score),[41],0.344
same,glycan array binding signal (z-score),[42],-0.647
same,glycan array binding signal (z-score),[43],-1.29
same,glycan array binding signal (z-score),[44],-0.119
same,glycan array binding signal (z-score),[45],0.043

# A run of entries from the list above:
binder,measurement,setting,value
BIp1-His (Cryptococcus neoformans) (protein) MFTKIFVALFAATAVLSAPVESAEKRITHTGRATFYSPSVGIGACGWQNTDEELVVALNAPQYALNADHNCGQSVRITNEQNGNQEIAKVVDLCPGCNDGDLDMSPALFGALNNNDFDQGVFPISWNFLPRDDTSSSN,glycan array binding signal (z-score),[17],-0.692
same,glycan array binding signal (z-score),[18],0.203
same,glycan array binding signal (z-score),[19],0.294
same,glycan array binding signal (z-score),[20],-0.183
same,glycan array binding signal (z-score),[21],0.096
same,glycan array binding signal (z-score),[22],-0.522
same,glycan array binding signal (z-score),[23],-1.47
same,glycan array binding signal (z-score),[24],0.446
same,glycan array binding signal (z-score),[25],0.565
same,glycan array binding signal (z-score),[26],0.352
